Measurements reported in PubChem BioAssay AID1259308 (NCATS, 2017).

Purpose: 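Knock-downs that increase output of a recombinant reporter protein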 (primary screen)
Cells: human HEK293 embryonic kidney cells stably expressing firefly luciferase (HEK-CMV-Luc2-Hygro)
Knock-down reagent: single siRNA against human genes, 0.8 pmol siRNA per well
Duration: 72 h
Detection: 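Luciferase light (ONE-Glo) measured on one replicate plate set and viability (CellTiter-Glo) on the other, scaled to a negative control siRNA, with robust z-scores and luciferase per cell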
Direction: total luciferase, z-score and total luciferase, % of control: higher = more reporter protein produced
Call rule: 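Active when the median/MAD z-score for overall luciferase is greater than 3; a gene was taken forward for validation with new siRNAs if at least two of its three siRNAs passed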
Calls: active = raised luciferase; inactive = no rise
In all, the deposit lists about 59,000 reagents; this is an unselected part. Of all reagents, about 1,510 (2.6%) got an active call. 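Calls use total luciferase alone and ignore viability, so some active siRNAs may act by altering cell number.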 Entries without a mark were called inactive. The numbers tell different reagents against one gene apart. Not all columns of the deposit are shown.

The first 2 records, ahead of the listing:
HAVCR1 (hepatitis A virus cellular receptor 1) #1
- total luciferase, z-score: 0.482
- total luciferase, % of control: 91.5

HAVCR1 (hepatitis A virus cellular receptor 1) #2
- total luciferase, z-score: 0.189
- total luciferase, % of control: 85.6

The list itself, repeating the preview:
HAVCR1 (hepatitis A virus cellular receptor 1) #1
- total luciferase, z-score: 0.482
- total luciferase, % of control: 91.5

HAVCR1 (hepatitis A virus cellular receptor 1) #2
- total luciferase, z-score: 0.189
- total luciferase, % of control: 85.6

HAVCR1 (hepatitis A virus cellular receptor 1) #3
- total luciferase, z-score: 0.259
- total luciferase, % of control: 87

SYCP2 (synaptonemal complex protein 2) #1
- total luciferase, z-score: 0.142
- total luciferase, % of control: 84.7

SYCP2 (synaptonemal complex protein 2) #2
- total luciferase, z-score: 0.372
- total luciferase, % of control: 89.3

SYCP2 (synaptonemal complex protein 2) #3
- total luciferase, z-score: 0.417
- total luciferase, % of control: 90.2

CACNG7 (calcium voltage-gated channel auxiliary subunit gamma 7) #1
- total luciferase, z-score: 2.46
- total luciferase, % of control: 131

CACNG7 (calcium voltage-gated channel auxiliary subunit gamma 7) #2
- total luciferase, z-score: 0.403
- total luciferase, % of control: 89.9

CACNG7 (calcium voltage-gated channel auxiliary subunit gamma 7) #3
- total luciferase, z-score: 0.761
- total luciferase, % of control: 97

KRTAP10-10 (keratin associated protein 10-10) #1
- total luciferase, z-score: -2.62
- total luciferase, % of control: 29.8

KRTAP10-10 (keratin associated protein 10-10) #2
- total luciferase, z-score: -1.79
- total luciferase, % of control: 46.3

KRTAP10-10 (keratin associated protein 10-10) #3
- total luciferase, z-score: 0.29
- total luciferase, % of control: 87.7
